This is one part of the list. Further columns of the screen follow, without active or inactive calls. Most of these compounds were active or inconclusive in the main read-out, so they are no random draw. Potencies come from curve fits of mixed quality, noted in brackets.
Assay: qHTS Assay to Find Inhibitors of Chronic Active B-Cell Receptor Signaling
Details: ABC-DLBCL IkBa-CBG/CBR reporter, luminescence ratio (green luciferase fused to IkBa over red control in TMD8 lymphoma cells), 4 h
Summary of the method: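 Doxycycline induced both beetle luciferases in TMD8 lymphoma cells; IKK-driven degradation limits the IkappaBalpha-fused green signal, while red luminescence normalises for cell number and nonspecific effects. Compounds tested up to 46 uM, 4 hrs.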

[1] = measured here: CBR red luminescence, cell number
[2] = measured here: IkBa-CBG green luminescence

Row | SMILES | AC50 [1] | AC50 [2]
1 | Cc1nn(Cc2cccc(C(=O)Nc3ccn(Cc4ccccc4F)n3)c2)c(C)c1[N+](=O)[O-] | 29.1 µM [rising, single point] | –
2 | CCOc1ccc(Nc2nc3cc(S(=O)(=O)CC)ccc3o2)cc1 | 2.82 µM [rising, full curve, poor fit] | –
3 | COc1cnn(-c2ccccc2)c(=O)c1OC | 2 µM [rising, full curve, poor fit] | –
4 | COC(=O)c1ccc(Cn2cc(C(F)(F)F)cc([N+](=O)[O-])c2=O)cc1 | 0.501 µM [falling, full curve, poor fit] | –
5 | Cn1c(=O)c2c(ncn2Cc2ccccc2)n(C)c1=O | 3.26 µM [falling, full curve, poor fit] | –
6 | O=C(CN1CCCCC1)Nc1nnc(-c2ccccc2)s1 | 35.5 µM [falling, single point] | –
7 | CC(C)[C@@H](N)C(=O)NC[C@H]1O[C@@H](n2cnc3c(N)ncnc32)[C@H](O)[C@@H]1O | 20.6 µM [rising, partial curve, poor fit] | –
8 | COc1ccccc1NS(=O)(=O)c1cccc(C(=O)NNC(=O)c2ccc(=O)[nH]c2)c1 | – | 18.4 µM [falling, partial curve, poor fit]
9 | O=C(N/N=C/c1ccc(-c2cccc([N+](=O)[O-])c2)o1)c1ccccc1O | 7.94 µM [falling, partial curve] | –
10 | NC(=O)c1cc2ccc(O)cc2oc1=NCc1ccccc1 | 32.6 µM [falling, single point] | –
11 | Cc1ccc(C)c(CSCc2nc3ccccc3[nH]2)c1 | 6.31 µM [rising, single point] | –
12 | COC(=O)c1cc(NC(=O)COC(=O)CN2C(=O)C3CC=CCC3C2=O)cc(C(=O)OC)c1 (stereo not drawn) | 2.06 µM [rising, full curve, poor fit] | –
13 | Cc1cccc(NC(=O)C(=O)NCC2CCCO2)c1 (stereo not drawn) | 3.55 µM [falling, full curve, poor fit] | –
14 | CCOc1ccc(-n2c(=S)sc3c(=O)[nH]c(SCC(=O)N4CCC(C)CC4)nc32)cc1 | 29.1 µM [falling, single point] | –
15 | COc1ccccc1CC(=O)N(CCC1=CCCCC1)c1c(N)n(Cc2ccccc2)c(=O)[nH]c1=O | 16.4 µM [falling, partial curve, poor fit] | –
16 | N/C(=N\OC(=O)CCCOc1ccccc1)c1ccccc1 | 4.11 µM [rising, full curve] | –
17 | CC(C)(C)C(=O)c1sc(Nc2ccccc2)nc1N | 23.1 µM [falling, single point] | –
18 | Cc1ccc(N2C(=O)NC3(CCCCC3)C2=O)cc1 | 11.2 µM [rising, partial curve, poor fit] | –
19 | O=C(CN1C(=O)c2ccccc2S1(=O)=O)N1CCN(c2ccccc2)CC1 | 32.6 µM [falling, single point] | –
20 | C[C@@H]1CN([C@H](C)CO)C(=O)Cc2cc(NS(=O)(=O)c3ccc(Cl)cc3)ccc2O[C@H]1CN(C)Cc1ccc(C(F)(F)F)cc1 | 11.6 µM [falling, partial curve, poor fit] | –
21 | Cc1ccc(NC(=O)c2ccc(NCCN)c([N+](=O)[O-])c2)cc1Cl | 14.6 µM [falling, partial curve, poor fit] | –

Retrieved by structure from above:
Row | SMILES | AC50 [1] | AC50 [2]
14 | CCOc1ccc(-n2c(=S)sc3c(=O)[nH]c(SCC(=O)N4CCC(C)CC4)nc32)cc1 | 29.1 µM [falling, single point] | –
13 | Cc1cccc(NC(=O)C(=O)NCC2CCCO2)c1 (stereo not drawn) | 3.55 µM [falling, full curve, poor fit] | –
19 | O=C(CN1C(=O)c2ccccc2S1(=O)=O)N1CCN(c2ccccc2)CC1 | 32.6 µM [falling, single point] | –

Remaining list, next part:

Row | SMILES | AC50 [1] | AC50 [2]
22 | O=C1CSC(c2ccccc2F)N1 (stereo not drawn) | 35.5 µM [falling, partial curve, poor fit] | –
23 | CC(C)CCn1c(SCC#N)nc2c(sc3ccccc32)c1=O | 0.651 µM [falling, partial curve, poor fit] | –
24 | O=C(Cc1ccccc1)Nc1cc2c(cc1Cl)OCCCO2 | 12.6 µM [rising, single point] | –
25 | Cc1ccc(CSC2=NCCN2S(=O)(=O)c2ccccc2)cc1 | 35.5 µM [rising, single point] | –
26 | Nc1c(C(O)(C(F)(F)F)C(F)(F)F)ccc2ccccc12 | 0.562 µM [falling, full curve] | –
27 | c1ccc(-c2[nH]ncc2-c2nc3ccccc3[nH]2)cc1 | 29.1 µM [falling, single point] | –
28 | CC#CC[N+](C)(C)CCCCCCCCCC | 4.47 µM [falling, full curve] | –
29 | COc1ccc(C2C(=O)N(C3CCCCCC3)CC(=O)N2Cc2ccc(C)cc2)cc1OC (stereo not drawn) | 0.562 µM [rising, full curve, poor fit] | –
30 | CC1CCCC(C)N1C(=O)CSc1nc2ccccc2c(=O)[nH]1 (stereo not drawn) | 12.6 µM [falling, single point] | 15.8 µM [rising, partial curve, poor fit]
31 | COc1ccccc1C1CCN(Cc2ccc(C)cc2)CC1 | 11.2 µM [rising, partial curve] | –
32 | CN1C(=O)c2ccccc2Sc2ccc(NC(=O)COc3ccc(F)cc3)cc21 | 8.91 µM [falling, partial curve] | –
33 | OC(COc1ccc(Cl)c2ccccc12)CN1CCN(c2ccccn2)CC1 (stereo not drawn) | 17.8 µM [falling, single point] | –
34 | COCCCNC(=O)C(=O)NC1CCCCC1C (stereo not drawn) | 35.5 µM [falling, single point] | –
35 | Oc1c(-c2cc(-c3ccco3)[nH]n2)ccc2ccccc12 | 10.3 µM [falling, partial curve, poor fit] | –
36 | CC(=O)N1CCc2c(sc(NC(=O)CN3C(=O)c4ccccc4C3=O)c2C(N)=O)C1 | 0.891 µM [falling, full curve, poor fit] | –
37 | COc1cccc(N/C(N)=N/c2nc(C(F)(F)F)cc(=O)[nH]2)c1 | 2.91 µM [falling, full curve] | –
38 | COCCn1c(SCc2csc(-c3ccccc3)n2)nc2ccccc21 | 29.1 µM [falling, single point] | –
39 | COc1cc(OC)cc(C(=O)O/N=C(\N)c2cccc(C)c2)c1 | 20 µM [rising, partial curve, poor fit] | –
40 | CC(C)C(=O)N=c1sc2cccc(F)c2n1C | 7.94 µM [rising, partial curve, poor fit] | –
41 | NC(=S)Cc1nc2n(n1)Cc1ccccc1-2 | 9.2 µM [falling, partial curve] | 2.91 µM [rising, partial curve]

Source: PubChem BioAssay AID493014 (National Center for Advancing Translational Sciences (NCATS), 2011)
